According to US20020182717A1, “Method of preparing supported lipid film membranes and use thereof” (Biacore AB, priority 2001, published 2002):

Assay: On surface reconstitution of lipid membranes: deposition of octylglucoside/lipid mixed micelles on sensor chip, SPR (BIACORE)
Details: for Lipid deposition level Relative POPC (%): at optimal octylglucoside/lipid ratio, Pioneer Chip L1; for Optimal detergent/lipid ratio: octylglucoside, CMC not subtracted from the octylglucoside concentration

Row | Compound | optimum deposition level (Pioneer Chip L1, mixed micelles with octylglucoside) | Lipid deposition level Relative POPC (%) | Optimal detergent/lipid ratio | lipid deposited (reference flow cell with unmodified Pioneer Chip L1-surface, 3.3 mM POPC and 25 mM octylglucoside) | POPC deposited (rhodopsin-immobilized flow cell, 2 min injection of 3.3 mM POPC and 25 mM octylglucoside)
1 | CCCCCCCC/C=C\CCCCCCCC(=O)O[C@H](COC(=O)CCCCCCCCCCCCCCC)COP(=O)([O-])OCC[N+](C)(C)C [POPC, 1-Palmitoyl-2-oleoyl-phosphatidylcholine] | about 5000 RU | 100 | 7.3 | about 5000 RU | Around 4500 RU
2 | CCCCCCCC/C=C\CCCCCCCC(=O)OC[C@H](COP(=O)([O-])OCC[N+](C)(C)C)OC(=O)CCCCCCC/C=C\CCCCCCCC [DOPC, di-1,2-oleoyl-SN-phosphatidylcholine] | – | 95 | 7.5 | – | –
